Experimental data published in ChEMBL document CHEMBL2218924, “A broad activity screen in support of a chemogenomic map for kinase signalling research and drug discovery” (Biochem J, 2013).
For some assays here: This list holds what a sample rich in strong results left over. How the calls were made is not given here. This is a selection; strong and weak results do not stand in their true shares.

By UniProt entry, the sequences of proteins in these tests, tags left out. Where a name states a change or a piece, a line headed by the entry shows the natural chain unless it says otherwise.
UniProt P41240: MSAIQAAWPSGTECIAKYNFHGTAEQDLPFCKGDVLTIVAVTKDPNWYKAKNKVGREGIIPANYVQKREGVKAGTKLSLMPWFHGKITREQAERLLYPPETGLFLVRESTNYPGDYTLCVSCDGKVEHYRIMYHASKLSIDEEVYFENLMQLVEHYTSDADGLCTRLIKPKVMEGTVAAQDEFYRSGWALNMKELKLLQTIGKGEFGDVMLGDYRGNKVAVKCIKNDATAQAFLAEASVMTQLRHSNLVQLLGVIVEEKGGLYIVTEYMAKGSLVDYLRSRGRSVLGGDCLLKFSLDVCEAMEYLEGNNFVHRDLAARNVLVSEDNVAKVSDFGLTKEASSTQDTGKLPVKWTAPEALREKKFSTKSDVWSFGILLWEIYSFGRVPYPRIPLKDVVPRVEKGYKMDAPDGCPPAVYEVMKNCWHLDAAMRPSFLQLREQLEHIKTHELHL
UniProt Q13554, whole entry: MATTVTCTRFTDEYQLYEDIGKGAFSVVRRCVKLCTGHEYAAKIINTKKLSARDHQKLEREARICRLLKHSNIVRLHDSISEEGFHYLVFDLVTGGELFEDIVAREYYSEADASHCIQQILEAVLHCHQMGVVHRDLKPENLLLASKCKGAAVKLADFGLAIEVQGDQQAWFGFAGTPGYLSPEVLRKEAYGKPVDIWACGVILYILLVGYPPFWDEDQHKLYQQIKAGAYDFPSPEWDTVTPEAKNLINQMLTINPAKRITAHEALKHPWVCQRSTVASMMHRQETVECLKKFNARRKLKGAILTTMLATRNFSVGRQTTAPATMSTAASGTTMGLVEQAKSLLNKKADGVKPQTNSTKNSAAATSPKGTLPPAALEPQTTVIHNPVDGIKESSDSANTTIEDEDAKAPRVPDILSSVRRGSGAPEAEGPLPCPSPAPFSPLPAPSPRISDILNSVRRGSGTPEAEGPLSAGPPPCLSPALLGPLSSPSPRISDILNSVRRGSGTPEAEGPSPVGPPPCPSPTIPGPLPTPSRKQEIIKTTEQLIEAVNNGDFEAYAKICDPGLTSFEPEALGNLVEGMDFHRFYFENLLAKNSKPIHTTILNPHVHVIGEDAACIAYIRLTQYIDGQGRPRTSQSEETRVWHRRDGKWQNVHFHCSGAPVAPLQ
UniProt Q13557, whole entry: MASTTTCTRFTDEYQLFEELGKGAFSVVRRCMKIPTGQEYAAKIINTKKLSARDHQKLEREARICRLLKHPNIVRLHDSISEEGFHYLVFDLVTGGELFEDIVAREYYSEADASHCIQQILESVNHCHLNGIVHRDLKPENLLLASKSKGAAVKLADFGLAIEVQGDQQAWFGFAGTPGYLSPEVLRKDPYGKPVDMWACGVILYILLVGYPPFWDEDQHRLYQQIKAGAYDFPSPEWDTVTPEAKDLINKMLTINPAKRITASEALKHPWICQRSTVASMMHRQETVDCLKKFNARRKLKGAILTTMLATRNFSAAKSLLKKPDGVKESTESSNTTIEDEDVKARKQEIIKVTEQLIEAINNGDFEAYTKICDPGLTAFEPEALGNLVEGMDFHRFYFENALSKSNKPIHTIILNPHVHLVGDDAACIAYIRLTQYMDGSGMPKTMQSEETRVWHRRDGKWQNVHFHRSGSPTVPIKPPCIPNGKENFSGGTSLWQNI
UniProt Q16832: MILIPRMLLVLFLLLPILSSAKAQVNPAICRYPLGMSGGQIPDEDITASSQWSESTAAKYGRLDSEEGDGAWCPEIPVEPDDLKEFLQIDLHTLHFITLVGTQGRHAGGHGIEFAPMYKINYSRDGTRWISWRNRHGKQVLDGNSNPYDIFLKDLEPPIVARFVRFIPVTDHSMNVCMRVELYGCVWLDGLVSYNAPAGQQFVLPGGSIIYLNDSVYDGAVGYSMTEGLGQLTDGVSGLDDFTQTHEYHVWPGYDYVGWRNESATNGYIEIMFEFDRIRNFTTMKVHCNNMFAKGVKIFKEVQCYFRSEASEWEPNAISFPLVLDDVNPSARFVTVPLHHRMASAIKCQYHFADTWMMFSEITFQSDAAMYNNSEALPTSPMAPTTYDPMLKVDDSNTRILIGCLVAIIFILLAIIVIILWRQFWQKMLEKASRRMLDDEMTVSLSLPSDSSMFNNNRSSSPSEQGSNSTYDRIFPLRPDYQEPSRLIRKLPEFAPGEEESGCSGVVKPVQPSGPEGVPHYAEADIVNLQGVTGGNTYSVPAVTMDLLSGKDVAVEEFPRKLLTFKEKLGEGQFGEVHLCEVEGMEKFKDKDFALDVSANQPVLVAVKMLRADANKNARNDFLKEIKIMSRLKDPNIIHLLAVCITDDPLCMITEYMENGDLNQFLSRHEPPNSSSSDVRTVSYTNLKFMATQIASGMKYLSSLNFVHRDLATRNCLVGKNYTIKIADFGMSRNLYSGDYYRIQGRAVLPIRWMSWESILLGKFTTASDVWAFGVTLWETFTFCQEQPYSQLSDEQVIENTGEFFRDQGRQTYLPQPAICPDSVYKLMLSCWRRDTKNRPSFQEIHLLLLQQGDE
UniProt P29320: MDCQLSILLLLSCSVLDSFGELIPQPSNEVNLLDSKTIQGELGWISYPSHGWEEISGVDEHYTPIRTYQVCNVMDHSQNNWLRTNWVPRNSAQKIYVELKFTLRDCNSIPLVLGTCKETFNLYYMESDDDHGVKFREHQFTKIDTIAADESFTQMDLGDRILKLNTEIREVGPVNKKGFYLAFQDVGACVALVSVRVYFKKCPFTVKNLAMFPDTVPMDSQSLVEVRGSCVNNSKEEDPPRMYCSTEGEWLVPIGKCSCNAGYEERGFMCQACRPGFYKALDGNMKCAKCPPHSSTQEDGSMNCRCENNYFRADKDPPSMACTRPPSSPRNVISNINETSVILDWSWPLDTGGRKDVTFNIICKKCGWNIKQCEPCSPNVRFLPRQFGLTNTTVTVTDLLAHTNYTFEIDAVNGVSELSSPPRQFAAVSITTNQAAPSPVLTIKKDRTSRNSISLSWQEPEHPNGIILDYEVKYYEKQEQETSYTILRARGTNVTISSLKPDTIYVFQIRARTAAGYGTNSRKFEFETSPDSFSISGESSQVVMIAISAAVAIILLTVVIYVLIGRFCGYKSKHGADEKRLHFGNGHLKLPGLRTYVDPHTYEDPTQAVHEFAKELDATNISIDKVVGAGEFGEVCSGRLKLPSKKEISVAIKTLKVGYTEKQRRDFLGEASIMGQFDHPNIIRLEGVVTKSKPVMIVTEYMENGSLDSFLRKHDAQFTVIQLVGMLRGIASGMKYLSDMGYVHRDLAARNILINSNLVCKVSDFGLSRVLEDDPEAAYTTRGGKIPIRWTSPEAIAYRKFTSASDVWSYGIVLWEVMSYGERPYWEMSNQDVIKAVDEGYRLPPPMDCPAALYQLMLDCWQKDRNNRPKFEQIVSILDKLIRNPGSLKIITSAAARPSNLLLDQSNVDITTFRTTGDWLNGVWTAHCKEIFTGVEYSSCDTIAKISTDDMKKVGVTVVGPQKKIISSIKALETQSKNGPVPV
UniProt P54756, whole entry: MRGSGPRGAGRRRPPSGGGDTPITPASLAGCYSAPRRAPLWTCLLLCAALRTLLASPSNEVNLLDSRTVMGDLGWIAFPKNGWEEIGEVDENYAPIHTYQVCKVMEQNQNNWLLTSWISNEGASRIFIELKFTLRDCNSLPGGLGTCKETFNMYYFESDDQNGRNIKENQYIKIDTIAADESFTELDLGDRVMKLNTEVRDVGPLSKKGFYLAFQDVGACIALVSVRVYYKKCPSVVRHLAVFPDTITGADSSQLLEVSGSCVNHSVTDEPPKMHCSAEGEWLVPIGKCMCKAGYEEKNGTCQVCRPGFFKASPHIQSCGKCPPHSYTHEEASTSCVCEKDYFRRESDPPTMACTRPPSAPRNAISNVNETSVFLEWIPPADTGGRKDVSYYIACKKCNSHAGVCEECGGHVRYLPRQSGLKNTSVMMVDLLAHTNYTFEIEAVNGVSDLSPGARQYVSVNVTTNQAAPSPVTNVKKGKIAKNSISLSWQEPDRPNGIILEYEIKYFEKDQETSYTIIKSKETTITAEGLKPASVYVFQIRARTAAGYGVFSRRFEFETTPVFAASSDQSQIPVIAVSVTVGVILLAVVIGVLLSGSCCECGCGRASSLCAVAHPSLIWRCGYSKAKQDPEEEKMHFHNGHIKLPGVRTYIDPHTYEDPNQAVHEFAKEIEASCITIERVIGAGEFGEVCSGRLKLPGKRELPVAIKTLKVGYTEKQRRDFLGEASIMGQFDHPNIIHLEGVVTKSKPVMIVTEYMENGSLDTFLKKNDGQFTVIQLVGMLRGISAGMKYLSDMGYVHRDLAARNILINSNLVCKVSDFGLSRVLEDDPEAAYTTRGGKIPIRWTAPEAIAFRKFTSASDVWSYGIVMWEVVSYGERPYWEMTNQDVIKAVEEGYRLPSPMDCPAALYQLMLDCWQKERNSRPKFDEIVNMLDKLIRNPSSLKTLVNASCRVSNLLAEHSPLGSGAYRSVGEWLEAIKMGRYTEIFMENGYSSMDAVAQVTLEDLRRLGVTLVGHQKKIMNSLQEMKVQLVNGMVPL
UniProt Q15375: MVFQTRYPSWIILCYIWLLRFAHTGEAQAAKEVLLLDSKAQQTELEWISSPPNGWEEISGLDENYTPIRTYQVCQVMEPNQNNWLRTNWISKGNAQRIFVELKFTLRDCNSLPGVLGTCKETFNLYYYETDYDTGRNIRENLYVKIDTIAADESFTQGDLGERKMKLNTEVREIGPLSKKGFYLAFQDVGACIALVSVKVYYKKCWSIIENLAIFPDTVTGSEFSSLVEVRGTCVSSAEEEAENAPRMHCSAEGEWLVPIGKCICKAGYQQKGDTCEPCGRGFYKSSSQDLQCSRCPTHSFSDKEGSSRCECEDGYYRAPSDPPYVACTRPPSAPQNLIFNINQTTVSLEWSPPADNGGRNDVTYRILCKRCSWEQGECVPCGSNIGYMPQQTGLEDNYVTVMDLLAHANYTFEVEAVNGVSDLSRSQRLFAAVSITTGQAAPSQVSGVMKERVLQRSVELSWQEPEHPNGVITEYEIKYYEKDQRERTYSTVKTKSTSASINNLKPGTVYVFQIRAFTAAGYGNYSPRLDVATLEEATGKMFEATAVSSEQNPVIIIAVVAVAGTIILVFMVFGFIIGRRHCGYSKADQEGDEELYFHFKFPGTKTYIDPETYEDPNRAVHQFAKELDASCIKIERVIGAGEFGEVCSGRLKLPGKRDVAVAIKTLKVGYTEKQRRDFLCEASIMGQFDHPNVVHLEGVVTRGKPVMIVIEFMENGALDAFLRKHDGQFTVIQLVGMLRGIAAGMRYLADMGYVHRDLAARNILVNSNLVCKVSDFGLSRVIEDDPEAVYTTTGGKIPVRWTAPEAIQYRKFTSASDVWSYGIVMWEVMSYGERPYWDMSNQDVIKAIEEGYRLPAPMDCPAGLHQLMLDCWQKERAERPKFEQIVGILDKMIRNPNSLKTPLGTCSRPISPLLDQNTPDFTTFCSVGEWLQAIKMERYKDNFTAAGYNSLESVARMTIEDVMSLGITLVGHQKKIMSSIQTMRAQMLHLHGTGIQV
UniProt Q05397, whole entry, looked up: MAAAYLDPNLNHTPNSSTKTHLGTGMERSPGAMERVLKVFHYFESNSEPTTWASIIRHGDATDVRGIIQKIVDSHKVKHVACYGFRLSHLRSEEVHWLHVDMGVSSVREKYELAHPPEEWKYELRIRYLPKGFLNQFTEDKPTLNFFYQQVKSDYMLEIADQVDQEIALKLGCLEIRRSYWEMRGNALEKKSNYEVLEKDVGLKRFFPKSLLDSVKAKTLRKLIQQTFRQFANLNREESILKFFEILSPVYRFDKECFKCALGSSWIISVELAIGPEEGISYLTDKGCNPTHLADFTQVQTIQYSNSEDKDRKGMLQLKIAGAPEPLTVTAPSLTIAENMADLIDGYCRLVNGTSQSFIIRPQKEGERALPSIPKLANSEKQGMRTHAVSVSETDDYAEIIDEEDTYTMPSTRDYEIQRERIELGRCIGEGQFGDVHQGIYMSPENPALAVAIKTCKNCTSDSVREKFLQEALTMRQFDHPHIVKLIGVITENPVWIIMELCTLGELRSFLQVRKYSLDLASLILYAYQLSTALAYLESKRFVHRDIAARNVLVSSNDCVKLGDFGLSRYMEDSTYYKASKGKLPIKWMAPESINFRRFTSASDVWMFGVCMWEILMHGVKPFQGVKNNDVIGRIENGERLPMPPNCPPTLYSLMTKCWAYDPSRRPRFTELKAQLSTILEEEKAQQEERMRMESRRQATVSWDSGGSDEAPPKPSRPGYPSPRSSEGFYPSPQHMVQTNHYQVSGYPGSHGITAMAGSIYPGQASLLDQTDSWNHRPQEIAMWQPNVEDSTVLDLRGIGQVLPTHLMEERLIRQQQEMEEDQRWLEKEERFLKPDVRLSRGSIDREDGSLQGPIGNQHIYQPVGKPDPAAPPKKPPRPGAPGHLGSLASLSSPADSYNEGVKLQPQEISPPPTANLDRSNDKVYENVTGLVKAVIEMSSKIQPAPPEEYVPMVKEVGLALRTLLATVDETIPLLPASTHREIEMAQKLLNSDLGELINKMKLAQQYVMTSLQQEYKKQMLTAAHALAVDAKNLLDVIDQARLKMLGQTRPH

How the values were obtained:
[1] = target: Dual specificity protein kinase CLK3 (Homo sapiens) (UniProt P49761); details: at 1 µM
[2] = target: Dual specificity protein kinase CLK3 (Homo sapiens) (UniProt P49761); details: at 10 µM
[3] = target: Tyrosine-protein kinase CSK (Homo sapiens) (UniProt P41240); details: at 1 µM
[4] = target: Tyrosine-protein kinase CSK (Homo sapiens) (UniProt P41240); details: at 10 µM
[5] = target: Calcium/calmodulin-dependent protein kinase type 1 (Homo sapiens) (UniProt Q14012); details: at 1 µM
[6] = target: Calcium/calmodulin-dependent protein kinase type 1 (Homo sapiens) (UniProt Q14012); details: at 10 µM
[7] = target: Calcium/calmodulin-dependent protein kinase type II subunit beta (Homo sapiens) (UniProt Q13554); details: at 1 µM
[8] = target: Calcium/calmodulin-dependent protein kinase type II subunit beta (Homo sapiens) (UniProt Q13554); details: at 10 µM
[9] = target: Calcium/calmodulin-dependent protein kinase type II subunit gamma (Homo sapiens) (UniProt Q13555); details: at 1 µM
[10] = target: Calcium/calmodulin-dependent protein kinase type II subunit gamma (Homo sapiens) (UniProt Q13555); details: at 10 µM
[11] = target: Calcium/calmodulin-dependent protein kinase type II subunit delta (Homo sapiens) (UniProt Q13557); details: at 1 µM
[12] = target: Calcium/calmodulin-dependent protein kinase type II subunit delta (Homo sapiens) (UniProt Q13557); details: at 10 µM
[13] = target: Calcium/calmodulin-dependent protein kinase type IV (Homo sapiens) (UniProt Q16566); details: at 1 µM
[14] = target: Calcium/calmodulin-dependent protein kinase type IV (Homo sapiens) (UniProt Q16566); details: at 10 µM
[15] = target: Death-associated protein kinase 1 (Homo sapiens) (UniProt P53355); details: at 1 µM
[16] = target: Death-associated protein kinase 1 (Homo sapiens) (UniProt P53355); details: at 10 µM
[17] = target: Death-associated protein kinase 2 (Homo sapiens) (UniProt Q9UIK4); details: at 1 µM
[18] = target: Death-associated protein kinase 2 (Homo sapiens) (UniProt Q9UIK4); details: at 10 µM
[19] = target: Serine/threonine-protein kinase DCLK2 (Homo sapiens) (UniProt Q8N568); details: at 1 µM
[20] = target: Serine/threonine-protein kinase DCLK2 (Homo sapiens) (UniProt Q8N568); details: at 10 µM
[21] = target: Discoidin domain-containing receptor 2 (Homo sapiens) (UniProt Q16832); details: at 1 µM
[22] = target: Discoidin domain-containing receptor 2 (Homo sapiens) (UniProt Q16832); details: at 10 µM
[23] = target: Myotonin-protein kinase (Homo sapiens) (UniProt Q09013); details: at 1 µM
[24] = target: Myotonin-protein kinase (Homo sapiens) (UniProt Q09013); details: at 10 µM
[25] = target: Serine/threonine-protein kinase 17A (Homo sapiens) (UniProt Q9UEE5); details: at 1 µM
[26] = target: Serine/threonine-protein kinase 17A (Homo sapiens) (UniProt Q9UEE5); details: at 10 µM
[27] = target: Dual specificity tyrosine-phosphorylation-regulated kinase 2 (Homo sapiens) (UniProt Q92630); details: at 1 µM
[28] = target: Dual specificity tyrosine-phosphorylation-regulated kinase 2 (Homo sapiens) (UniProt Q92630); details: at 10 µM
[29] = target: Epidermal growth factor receptor (Homo sapiens) (UniProt P00533); details: at 1 µM
[30] = target: Epidermal growth factor receptor (Homo sapiens) (UniProt P00533); details: at 10 µM
[31] = target: Ephrin type-A receptor 1 (Homo sapiens) (UniProt P21709); details: at 1 µM
[32] = target: Ephrin type-A receptor 1 (Homo sapiens) (UniProt P21709); details: at 10 µM
[33] = target: Ephrin type-A receptor 2 (Homo sapiens) (UniProt P29317); details: at 1 µM
[34] = target: Ephrin type-A receptor 2 (Homo sapiens) (UniProt P29317); details: at 10 µM
[35] = target: Ephrin type-A receptor 3 (Homo sapiens) (UniProt P29320); details: at 1 µM
[36] = target: Ephrin type-A receptor 3 (Homo sapiens) (UniProt P29320); details: at 10 µM
[37] = target: Ephrin type-A receptor 4 (Homo sapiens) (UniProt P54764); details: at 1 µM
[38] = target: Ephrin type-A receptor 4 (Homo sapiens) (UniProt P54764); details: at 10 µM
[39] = target: Ephrin type-A receptor 5 (Homo sapiens) (UniProt P54756); details: at 1 µM
[40] = target: Ephrin type-A receptor 5 (Homo sapiens) (UniProt P54756); details: at 10 µM
[41] = target: Ephrin type-A receptor 7 (Homo sapiens) (UniProt Q15375); details: at 1 µM
[42] = target: Ephrin type-A receptor 7 (Homo sapiens) (UniProt Q15375); details: at 10 µM
[43] = target: Ephrin type-A receptor 8 (Homo sapiens) (UniProt P29322); details: at 1 µM
[44] = target: Ephrin type-A receptor 8 (Homo sapiens) (UniProt P29322); details: at 10 µM
[45] = target: Ephrin type-B receptor 1 (Homo sapiens) (UniProt P54762); details: at 1 µM
[46] = target: Ephrin type-B receptor 1 (Homo sapiens) (UniProt P54762); details: at 10 µM
[47] = target: Ephrin type-B receptor 2 (Homo sapiens) (UniProt P29323); details: at 1 µM
[48] = target: Ephrin type-B receptor 2 (Homo sapiens) (UniProt P29323); details: at 10 µM
[49] = target: Ephrin type-B receptor 3 (Homo sapiens) (UniProt P54753); details: at 1 µM
[50] = target: Ephrin type-B receptor 3 (Homo sapiens) (UniProt P54753); details: at 10 µM
[51] = target: Ephrin type-B receptor 4 (Homo sapiens) (UniProt P54760); details: at 1 µM
[52] = target: Ephrin type-B receptor 4 (Homo sapiens) (UniProt P54760); details: at 10 µM
[53] = target: Receptor tyrosine-protein kinase erbB-4 (Homo sapiens) (UniProt Q15303); details: at 1 µM
[54] = target: Receptor tyrosine-protein kinase erbB-4 (Homo sapiens) (UniProt Q15303); details: at 10 µM
[55] = target: Focal adhesion kinase 1 (Homo sapiens) (UniProt Q05397); details: at 1 µM
[56] = target: Focal adhesion kinase 1 (Homo sapiens) (UniProt Q05397); details: at 10 µM

`O=C1Nc2ccc(-c3cccnc3)cc2/C1=C\c1ccc[nH]1` gave a residual activity [1] of 7%, a residual activity [2] of 1% and a residual activity [3] of 108%. The residual activity [4] was 73%, the residual activity [5] was 81% and the residual activity [6] was 22%. It also gave a residual activity [7] of 13%, a residual activity [8] of 2% and a residual activity [9] of 12%. For the same molecule, the residual activity [10] was -3%, the residual activity [11] was 8% and the residual activity [12] was 1%. For the same molecule, the residual activity [13] was 103%, the residual activity [14] was 49% and the residual activity [15] was 94%. The residual activity [16] was 64%, the residual activity [17] was 85% and the residual activity [18] was 47%. The residual activity [19] was 71%, the residual activity [20] was 28% and the residual activity [21] was 110%. It also gave a residual activity [22] of 64%, a residual activity [23] of 125% and a residual activity [24] of 102%. The residual activity [25] was 1%, the residual activity [26] was 0% and the residual activity [27] was -5%. For the same molecule, the residual activity [28] was -6%, the residual activity [29] was 115% and the residual activity [30] was 90%. For the same molecule, the residual activity [31] was 87%, the residual activity [32] was 49% and the residual activity [33] was 104%. It also gave a residual activity [34] of 76%, a residual activity [35] of 105% and a residual activity [36] of 75%. It also gave a residual activity [37] of 112%, a residual activity [38] of 86% and a residual activity [39] of 102%. It also gave a residual activity [40] of 79%, a residual activity [41] of 92% and a residual activity [42] of 64%. For the same molecule, the residual activity [43] was 92%, the residual activity [44] was 74% and the residual activity [45] was 81%. The residual activity [46] was 61%, the residual activity [47] was 112% and the residual activity [48] was 113%. For the same molecule, the residual activity [49] was inactive: 101%, the residual activity [50] was 121% and the residual activity [51] was 96%. The residual activity [52] was 90%, the residual activity [53] was 100% and the residual activity [54] was 71%. For the same molecule, the residual activity [55] was 93% and the residual activity [56] was 34%.
